Assay results from patent US8268862B2, “Sirtuin modulating compounds” (Sirtris Pharmaceuticals, Inc., priority 2007, dated 2012).
At least one compound was matched to its structure with a doubt left.

Biological target: T1, SIRT1 (Homo sapiens, UniProt Q96EB6)
T1 sequence (Q96EB6 1-747): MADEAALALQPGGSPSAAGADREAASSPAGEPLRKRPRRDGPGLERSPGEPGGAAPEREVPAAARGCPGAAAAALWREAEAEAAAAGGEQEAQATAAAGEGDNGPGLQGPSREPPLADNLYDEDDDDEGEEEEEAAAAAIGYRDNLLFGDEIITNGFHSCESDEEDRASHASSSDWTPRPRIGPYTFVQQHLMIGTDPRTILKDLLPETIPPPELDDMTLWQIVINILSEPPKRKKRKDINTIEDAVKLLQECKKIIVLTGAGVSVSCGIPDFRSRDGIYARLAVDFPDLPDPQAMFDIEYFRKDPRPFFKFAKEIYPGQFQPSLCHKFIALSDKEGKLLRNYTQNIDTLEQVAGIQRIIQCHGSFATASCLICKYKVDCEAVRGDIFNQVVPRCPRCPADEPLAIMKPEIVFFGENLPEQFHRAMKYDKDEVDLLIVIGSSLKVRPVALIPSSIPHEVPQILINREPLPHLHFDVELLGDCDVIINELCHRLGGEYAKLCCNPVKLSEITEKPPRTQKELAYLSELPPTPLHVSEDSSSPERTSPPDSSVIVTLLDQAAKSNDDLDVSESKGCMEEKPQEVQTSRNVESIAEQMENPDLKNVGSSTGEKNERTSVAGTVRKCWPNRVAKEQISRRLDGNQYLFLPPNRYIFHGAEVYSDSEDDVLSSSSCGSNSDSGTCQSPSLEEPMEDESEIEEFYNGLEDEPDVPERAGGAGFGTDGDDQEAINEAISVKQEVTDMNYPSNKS
Test: mass spectrometry based SIRT1 deacetylation assay (activation)
Type: biochemical
Conditions: 0.5 μM peptide substrate, 120 μM βNAD+, 10 nM SIRT1, 25 min at 25° C.; NA = not active in the assay
From the text: A mass spectrometry based assay was used to identify modulators of SIRT1 activity. The mass spectrometry based assay utilizes a peptide having 20 amino acid residues as follows: Ac-EE-K(biotin)-GQSTSSHSK(Ac)NleSTEG-K(5TMR)-EE-NH2 (SEQ ID NO: 1) wherein K(Ac) is an acetylated lysine residue and Nle is a norleucine. The peptide is labeled with the fluorophore 5TMR (excitation 540 nm/emission 580 nm) at the C-terminus. The sequence of the peptide substrate is based on p53 with several modifications. In addition, the methionine residue naturally present in the sequence was replaced with the norleucine because the methionine may be susceptible to oxidation during synthesis and purification.
Test compounds may be added to the reaction as described above. […] After the 25 minute incubation with SIRT1, 10 μL of 10% formic acid is added to stop the reaction. Reactions are sealed and frozen for later mass spec analysis. Determination of the mass of the substrate peptide allows for precise determination of the degree of acetylation (i.e. starting material) as compared to deacetylated peptide (product).
A control for inhibition of sirtuin activity is conducted by adding 1 μL of 500 mM nicotinamide as a negative control at the start of the reaction (e.g., permits determination of maximum sirtuin inhibition). A control for activation of sirtuin activity is conducted using 10 nM of sirtuin protein, with 1 μL of DMSO in place of compound, to determine the amount of deacetylation of the substrate at a given timepoint within the linear range of the assay. This timepoint is the same as that used for test compounds and, within the linear range, the endpoint represents a change in velocity.
For the above assay, SIRT1 protein was expressed and purified as follows. […] The protein was expressed by induction with 1 mM IPTG as an N-terminal His-tag fusion protein at 18° C. overnight and harvested at 30,000×g. […]

| Compound | EC1.5 (concentration of test compound that results in 150% activation of SIRT1) [NM] |
| --- | --- |
| O=C(Nc1ccccc1-c1nc2cc(CN3CCNCC3)cnc2s1)c1cn2cc(Cl)ccc2n1 [Compound 125] | 760 |
| O=C(Nc1ccccc1-c1nc2cc(CN3CCNCC3)cnc2s1)c1ccc2ncsc2c1 [Compound 70] | 2590 |
| O=C(Nc1ccccc1-c1nc2ccc(CN3CCNCC3)nc2s1)c1cnc2ccccc2n1 [Compound 66] | 819 |
